# Measured values reported in PubChem BioAssay (EPA / NIEHS).
# The chains behind the UniProt entries cited, without tags or fusion partners. Where a name states a change or a piece, a line headed by the entry shows the natural chain unless it says otherwise.
# UniProt Q9UNQ0: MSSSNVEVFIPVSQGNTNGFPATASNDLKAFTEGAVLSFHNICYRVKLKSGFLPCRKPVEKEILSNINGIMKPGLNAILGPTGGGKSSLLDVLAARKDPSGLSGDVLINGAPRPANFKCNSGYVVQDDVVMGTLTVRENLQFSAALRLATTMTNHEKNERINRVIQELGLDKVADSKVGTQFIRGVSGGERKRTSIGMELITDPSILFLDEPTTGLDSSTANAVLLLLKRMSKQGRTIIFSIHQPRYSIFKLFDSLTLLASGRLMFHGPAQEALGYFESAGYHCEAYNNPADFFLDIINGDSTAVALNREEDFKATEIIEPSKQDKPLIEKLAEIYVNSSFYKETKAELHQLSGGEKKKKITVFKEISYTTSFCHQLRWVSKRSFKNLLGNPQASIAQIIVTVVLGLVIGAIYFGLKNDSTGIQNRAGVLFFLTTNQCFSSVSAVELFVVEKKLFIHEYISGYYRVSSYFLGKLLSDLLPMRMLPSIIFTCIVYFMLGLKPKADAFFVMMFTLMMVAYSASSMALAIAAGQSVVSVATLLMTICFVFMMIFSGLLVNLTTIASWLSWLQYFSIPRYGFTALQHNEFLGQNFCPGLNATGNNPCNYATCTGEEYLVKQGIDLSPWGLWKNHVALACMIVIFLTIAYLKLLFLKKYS
# Inconclusive means that the source gave no clear call. Such entries were picked first, then a sample of the others. For some of these results: Potencies beside an inconclusive call are fits to weak or partial responses and may not hold up. Calls of active or inactive are those of the source. How the source made its calls: active means hit-call score of the fitted dose curve at least 0.9, where 1 is the maximum; inconclusive means response in the unintended direction; inactive means score below 0.9.
# How the values were obtained:
# [1] = Tanguay_ZF_120hpf_YSE_legacy: (Legacy) Oregon State University Tanguay Lab 120 Hour Post-fertilization zebrafish Assay for Yolk Sac Edema (AID 2283634);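 on AC50: actives raise the incidence of yolk sac edema above the DMSO baseline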
# Procedure, shortened: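 Readout: presence or absence of yolk sac edema at 120 hpf, fitted upward against DMSO controls. Exposure ran statically from 6 hpf in dechorionated embryos kept at 28C.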
# [2] = Tanguay_ZF_120hpf_EYE_legacy: (Legacy) Oregon State University Tanguay Lab 120 Hour Post-fertilization zebrafish Assay for Eye Malformation (AID 2283636)
# Procedure, shortened: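 Read-out is binary presence or absence of eye malformation, scored by brightfield microscopy at 120 hpf. Single larvae were exposed from 6 hpf in embryo medium containing 0.64% DMSO, with DMSO as baseline.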
# [3] = Tanguay_ZF_120hpf_BRAI_legacy: (Legacy) Oregon State University Tanguay Lab 120 Hour Post-fertilization zebrafish Assay for Brain Malformation (AID 2283641)
# Procedure, shortened: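 Brain malformation in Tropical 5D zebrafish was recorded as a binary endpoint after static compound exposure from early development to 120 hpf at 28C. Activity was analysed against DMSO as negative control.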
# [4] = Tanguay_ZF_120hpf_CIRC_legacy: (Legacy) Oregon State University Tanguay Lab 120 Hour Post-fertilization zebrafish Assay for Circulatory Malformation (AID 2283651)
# Procedure, shortened: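 Read-out: presence or absence of circulatory malformation at 120 hpf, scored by brightfield microscopy, fitted in the gain-of-signal direction against DMSO baseline. Wild-type 5D larvae were exposed from 6 hpf after enzymatic chorion removal.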
# [5] = Tanguay_ZF_120hpf_SNOU_legacy: (Legacy) Oregon State University Tanguay Lab 120 Hour Post-fertilization zebrafish Assay for Snout Malformation (AID 2283637)
# Procedure, shortened: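 Snout malformation read as a yes/no call on brightfield images of 120 hpf larvae (Tropical 5D strain). Static exposure began at 6 hpf on dechorionated embryos in 0.64% DMSO, with gain of signal analysed versus DMSO controls.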
# [6] = Tanguay_ZF_120hpf_PE_legacy: (Legacy) Oregon State University Tanguay Lab 120 Hour Post-fertilization zebrafish Assay for Pericardial Edema (AID 2283640);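 on AC50: potency for increased incidence of pericardial edema versus DMSO baseline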
# Procedure, shortened: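 Read-out is the presence or absence of pericardial edema at 120 hpf under brightfield, with gain of signal fitted against DMSO controls. Larvae (5D wild-type) were statically exposed at 28C with 0.64% final DMSO.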
# [7] = Tanguay_ZF_120hpf_SWIM_legacy: (Legacy) Oregon State University Tanguay Lab 120 Hour Post-fertilization zebrafish Assay for Swim Bladder Malformation (AID 2283654);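 further: swim bladder malformation in each larva scored yes or no under brightfield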
# Procedure, shortened: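 Embryos lacking chorions were exposed individually and statically to test chemical from 6 to 120 hpf at 28C, with 0.64% DMSO as vehicle. At 120 hpf, swim bladder malformation was recorded as present or absent by brightfield microscopy.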
# [8] = read-out: Broad substrate specificity ATP-binding cassette transporter ABCG2 (Homo sapiens) (UniProt Q9UNQ0); test: CLD_ABCG2_6hr: CellzDirect (CLD) Gene Expression Assay for ABC Transporter (ABCG2) at 6 hours (AID 2283660)
# Procedure, shortened: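 Primary human hepatocytes dosed daily with chemicals at multiple concentrations (0.2% DMSO vehicle), harvested 6 h after dosing. ABCG2 mRNA induction read by quantitative nuclease protection assay (qNPA) chemiluminescence; gain of signal fitted against DMSO baseline.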
# [9] = Tanguay_ZF_120hpf_AXIS_legacy: (Legacy) Oregon State University Tanguay Lab 120 Hour Post-fertilization zebrafish Assay for Body Axis Malformation (AID 2283635);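 on AC50: potency for an increased fraction of larvae scored with body axis malformation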
# Procedure, shortened: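 Static 6–120 hpf chemical exposure of dechorionated wild-type 5D zebrafish, one per well at 28C; morphology endpoint scored binary at 120 hpf relative to DMSO control.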
# [10] = Tanguay_ZF_120hpf_JAW_legacy: (Legacy) Oregon State University Tanguay Lab 120 Hour Post-fertilization zebrafish Assay for Jaw Malformation (AID 2283638);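 further: active means more embryos with jaw malformation than DMSO controls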
# Procedure, shortened: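 Static waterborne exposure of dechorionated wild-type (Tropical 5D) zebrafish from 6 to 120 hpf at 28C, 0.64% DMSO vehicle; 5uM trimethyltin chloride served as positive control. Jaw morphology recorded as binary at 120 hpf.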
# [11] = Tanguay_ZF_120hpf_SOMI_legacy: (Legacy) Oregon State University Tanguay Lab 120 Hour Post-fertilization zebrafish Assay for Somite Malformation (AID 2283647)
# Procedure, shortened: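 5D WT zebrafish; chorion removed 4 hpf; 1 embryo/well from 6 hpf; static exposure to 120 hpf, 28C, 0.64% DMSO final. Endpoint: somite malformation, binary, brightfield. Mortality excluded.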
# [12] = Tanguay_ZF_120hpf_PFIN_legacy: (Legacy) Oregon State University Tanguay Lab 120 Hour Post-fertilization zebrafish Assay for Pectoral Fin Malformation (AID 2283648);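 further: each larva judged yes or no for fin defect by brightfield with dead larvae skipped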
# Procedure, shortened: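 5D WT zebrafish; pronase dechorionation 4 hpf; 1 embryo/well at 6 hpf; static exposure to 120 hpf, 28C, sealed, foil-covered; final DMSO 0.64% v/v; 5 uM trimethyltin chloride positive control; fin defect scored yes/no.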
# [13] = Tanguay_ZF_120hpf_PIG_legacy: (Legacy) Oregon State University Tanguay Lab 120 Hour Post-fertilization zebrafish Assay for Pigmentation Malformation (AID 2283650)
# Procedure, shortened: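 Pronase dechorionation at 4 hpf; embryos plated at 6 hpf, one per well; static exposure, sealed and foil-covered, 28C, to 120 hpf; pigmentation read by brightfield, binary; DMSO 0.64% baseline, 5uM trimethyltin chloride positive control.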
# [14] = Tanguay_ZF_120hpf_CFIN_legacy: (Legacy) Oregon State University Tanguay Lab 120 Hour Post-fertilization zebrafish Assay for Caudal Fin Malformation (AID 2283649)
# Procedure, shortened: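 Embryos were collected from Tropical 5D wild-type adults and dechorionated at 4 hpf. At 6 hpf each was exposed, one per well, at 0.64% DMSO and 28C. At 120 hpf fin morphology was scored; dead embryos were excluded.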
# [15] = read-out: xenobiotic metabolism (CYP1A1), CYP1A1 (gene 1543); test: CLD_CYP1A1_6hr: CellzDirect (CLD) Gene Expression Assay for xenobiotic metabolism (CYP1A1) at 6 hours (AID 2283661);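 on AC50: potency for transcript induction above DMSO vehicle baseline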
# Procedure, shortened: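 Primary human hepatocytes from two donors, compound versus 0.2% DMSO vehicle. CYP1A1 mRNA measured 6 h after dosing by quantitative nuclease protection assay with chemiluminescent read-out; induction fitted relative to DMSO, cytotoxicity flagged by microscopy.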
# [16] = Tanguay_ZF_120hpf_OTIC_legacy: (Legacy) Oregon State University Tanguay Lab 120 Hour Post-fertilization zebrafish Assay for Otic Vesicle Malformation (AID 2283639)
# Procedure, shortened: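 Embryos from 5D wild-type adults exposed in plates; DMSO 0.64% v/v final. Sealed, light-protected, 28C, static to 120 hpf. Otic vesicle malformation recorded as binary endpoint; gain-of-signal fitted vs DMSO.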
# [17] = Tanguay_ZF_120hpf_TRUN_legacy: (Legacy) Oregon State University Tanguay Lab 120 Hour Post-fertilization zebrafish Assay for Truncated Body (AID 2283655)
# Procedure, shortened: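 5D wild-type larvae; pronase dechorionation; static exposure 6→120 hpf, 28C; DMSO 0.64% final; 5uM trimethyltin chloride positive control. Readout: presence/absence of truncated body, analyzed relative to DMSO.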
# [18] = read-out: ABC Transporter (ABCB1), ABCB1 (gene 5243); test: CLD_ABCB1_6hr: CellzDirect (CLD) Gene Expression Assay for ABC Transporter (ABCB1) at 6 hours (AID 2283659);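 further: hits raise ABCB1 transcript above the DMSO vehicle baseline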
# Procedure, shortened: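 Primary human hepatocytes (two donor preparations) dosed daily for two days with chemicals at multiple concentrations, 0.2% DMSO vehicle; harvested 6 h post-dose. ABCB1 mRNA induction quantified by qNPA chemiluminescence; gain-of-signal fitted versus DMSO.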
# [19] = Tanguay_ZF_120hpf_NC_legacy: (Legacy) Oregon State University Tanguay Lab 120 Hour Post-fertilization zebrafish Assay for Notochord and Tail Malformation (AID 2283656)
# Procedure, shortened: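 Dechorionated Tropical 5D wild-type zebrafish embryos, one per well from 6 hpf, statically exposed to 120 hpf at 28C in 0.64% DMSO final. Notochord distortion scored present/absent by brightfield; dead embryos excluded.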
compound,measurement,setting,value
Oc1ccc(Cl)cc1Cl,AC50,[1],inconclusive: 91.8 µM
same,outcome,[2],inactive
same,AC50,[3],inconclusive: 4.76 µM
same,AC50,[4],inconclusive: 127 µM
CCOC(=O)COc1cc(-c2nn(C)c(OC(F)F)c2Cl)c(F)cc1Cl,outcome,[1],inactive
same,AC50,[5],inconclusive: 30.5 µM
same,AC50,[6],inconclusive: 1.48 µM
same,AC50,[7],inconclusive: 22.4 µM
same,AC50,[8],inconclusive: 0.00392 µM
C1CC2OC2CC1C1CO1 (stereo not given),AC50,[1],inconclusive: 200 µM
same,AC50,[9],inconclusive: 202 µM
same,AC50,[6],inconclusive: 202 µM
same,AC50,[3],inconclusive: 98.5 µM
same,outcome,[7],inactive
CCN(CC)c1ccccc1,AC50,[9],inconclusive: 202 µM
same,AC50,[2],inconclusive: 87.3 µM
same,AC50,[10],inconclusive: 202 µM
same,outcome,[11],inactive
same,AC50,[12],inconclusive: 125 µM
same,AC50,[13],inconclusive: 42.7 µM
N#Cc1nn(-c2c(Cl)cc(C(F)(F)F)cc2Cl)c(N)c1S(=O)C(F)(F)F (stereo not given),AC50,[1],active: 0.0235 µM
same,AC50,[11],inconclusive: 51.6 µM
same,outcome,[14],inactive
same,AC50,[15],inconclusive: 20 µM
Nc1c(Cl)c(Cl)nc(C(=O)O)c1Cl,AC50,[1],inconclusive: 5.55 µM
same,AC50,[9],inconclusive: 201 µM
same,AC50,[2],inconclusive: 202 µM
same,AC50,[5],inconclusive: 201 µM
same,outcome,[16],inactive
same,AC50,[7],inconclusive: 27 µM
same,AC50,[17],inconclusive: 7.9 µM
CCc1ccc(C(=O)NN(C(=O)c2cc(C)cc(C)c2)C(C)(C)C)cc1,AC50,[1],inconclusive: 3.48 µM
same,AC50,[6],inconclusive: 202 µM
same,AC50,[11],inconclusive: 200 µM
same,AC50,[4],inconclusive: 77.1 µM
OC(c1ccc(Cl)cc1)(c1ccc(Cl)cc1)C(Cl)(Cl)Cl,AC50,[1],inconclusive: 2.06 µM
same,AC50,[9],inconclusive: 4.07 µM
same,AC50,[2],inconclusive: 0.479 µM
same,outcome,[13],inactive
same,AC50,[17],inconclusive: 2.87 µM
same,outcome,[8],inactive
CC(C)(c1ccccc1)c1ccc(O)cc1,AC50,[1],inconclusive: 20.2 µM
same,AC50,[5],inconclusive: 0.697 µM
same,AC50,[10],inconclusive: 15 µM
same,AC50,[3],inconclusive: 4.1 µM
same,AC50,[12],inconclusive: 2.65 µM
same,outcome,[7],inactive
same,AC50,[17],inconclusive: 3.17 µM
CNC(=O)Oc1cccc(N=CN(C)C)c1,AC50,[1],inconclusive: 139 µM
same,AC50,[5],inconclusive: 61.4 µM
same,AC50,[13],inconclusive: 7.06 µM
same,AC50,[4],inconclusive: 0.000651 µM
same,AC50,[7],inconclusive: 9.56 µM
same,outcome,[15],inactive
Nc1ccc(Cl)cc1,AC50,[1],inconclusive: 130 µM
same,AC50,[12],inconclusive: 3.06 µM
same,outcome,[13],inactive
same,AC50,[17],inconclusive: 137 µM
ClCC(Cl)CCl,AC50,[1],inconclusive: 9.63 µM
same,AC50,[2],inconclusive: 149 µM
same,outcome,[6],inactive
same,outcome,[3],inactive
same,AC50,[12],inconclusive: 30.6 µM
same,outcome,[4],inactive
C[N+](C)(C)CC1CO1 (stereo not given),outcome,[1],inactive
same,AC50,[9],inconclusive: 1.89 µM
same,AC50,[2],inconclusive: 202 µM
same,AC50,[5],inconclusive: 2.42 µM
same,AC50,[12],inconclusive: 123 µM
same,AC50,[4],inconclusive: 83.1 µM
N#Cc1c(Cl)c(Cl)c(Cl)c(C#N)c1Cl,AC50,[1],inconclusive: 113 µM
same,AC50,[17],active: 47.8 µM
same,AC50,[8],active: 20 µM
same,AC50,[15],active: 36.8 µM
COP(=S)(OC)Oc1nc(Cl)c(Cl)cc1Cl,outcome,[9],inactive
same,outcome,[2],inactive
same,AC50,[10],active: 34 µM
same,AC50,[6],inconclusive: 13.3 µM
same,outcome,[12],inactive
same,outcome,[18],inactive
same,outcome,[8],inactive
CCNc1nc(Cl)nc(NC(C)(C)C)n1,AC50,[9],inconclusive: 9.5 µM
same,AC50,[2],inconclusive: 0.767 µM
same,AC50,[10],inconclusive: 96.6 µM
same,AC50,[6],inconclusive: 119 µM
same,outcome,[4],inactive
Cn1sc(Cl)cc1=O,AC50,[1],inconclusive: 19.5 µM
same,AC50,[9],inconclusive: 20.2 µM
same,AC50,[5],inconclusive: 20.2 µM
same,AC50,[4],inconclusive: 20.2 µM
same,outcome,[7],inactive
same,AC50,[17],inconclusive: 20.2 µM
same,AC50,[19],inconclusive: 0.164 µM
CC(C)N1C(=O)c2ccccc2NS1(=O)=O,AC50,[1],inconclusive: 202 µM
same,AC50,[14],inconclusive: 120 µM
same,AC50,[13],inconclusive: 202 µM
same,AC50,[19],inconclusive: 168 µM
same,AC50,[8],inconclusive: 0.000428 µM
CSC1=N[C@@](C)(c2ccccc2)C(=O)N1Nc1ccccc1,AC50,[1],active: 3.52 µM
same,AC50,[6],active: 2.63 µM
same,AC50,[8],inconclusive: 20 µM
Cc1ccc(-c2c(Cl)nc(C#N)n2S(=O)(=O)N(C)C)cc1,outcome,[9],inactive
ClC1(Cl)C2(Cl)C3(Cl)C4(Cl)C(Cl)(Cl)C5(Cl)C3(Cl)C1(Cl)C5(Cl)C24Cl (stereo not given),outcome,[1],inactive
same,outcome,[9],inactive
same,outcome,[2],inactive
same,outcome,[12],inactive
CCCCCCCCn1sccc1=O,AC50,[1],inconclusive: 3.43 µM
same,AC50,[5],inconclusive: 0.000736 µM
same,outcome,[7],inactive
Cc1ccc(N)cc1N,AC50,[1],inconclusive: 2.05 µM
same,outcome,[5],inactive
same,AC50,[10],inconclusive: 202 µM
same,AC50,[12],inconclusive: 192 µM
same,AC50,[14],inconclusive: 177 µM
same,outcome,[7],inactive

# Some of the entries above in another layout.
compound | measurement | setting | value
Cc1ccc(N)cc1N | AC50 | [1] | inconclusive: 2.05 µM
same | outcome | [5] | inactive

# In another format: entries from further up.
compound	measurement	setting	value
CCOC(=O)COc1cc(-c2nn(C)c(OC(F)F)c2Cl)c(F)cc1Cl	AC50	[6]	inconclusive: 1.48 µM
same	AC50	[7]	inconclusive: 22.4 µM

# Exported with bars between the fields: entries from further up
compound | measurement | setting | value
C[N+](C)(C)CC1CO1 (stereo not given) | outcome | [1] | inactive
Cc1ccc(N)cc1N | AC50 | [10] | inconclusive: 202 µM
